# The list shows a part of the results.
# B1: Mnn9-2N3 (Aspergillus fumigatus) (protein)
# chain: MAVARRMRRTNPITLLLAAILAIGFFIFVLSPSTTSASPVKAGSASSSSTSQQRREDNAAENPLSPPTKPFFKSQPVRHDGQQAPPPVVQYNLNQLSSTSTSAANGERILILTPMARFVPEYWDNVVKLTYPHELISIGFIIPKNKEGNAALAALEAAIAKTQSGPIDKRFASISILRQDFEPPLQSQDEKERHKISNQKARRESMSRARNSLLFTTLGPATAWVLWLDADIVETPPTLIQDLTAHDHPVLVPNCYQRYYNSEKKKMDVRPYDYNSWIDSSTAQSMAAEMGPDEILLEGYAEMPTYRTLMAHLADTANPNPKKVIELDGVGGTALMVKAEVHRDGAMFPAFPFYHLVETEGFAKMAKRLGYSVYGLPDYFVSRNFFFFFFFFFFG
# Columns and labels:
# Experiment in all cases: glycan array binding signal (z-score within array); higher = stronger binding
# Settings in all cases: glycan notation: IUPAC condensed, linker removed
# [1] = target: GlcNAc(b1-3)Gal(b1-4)GlcNAc(b1-3)Gal(b1-4)GlcNAc(b1-3)GalNAc
# Summary of the method: (§1)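 Glycan array binding is given as a within-array Z-score, which can be read as non-binding when negative. The arrays, 3228 of them, came from the Consortium for Functional Glycomics database and were retained only where the protein sequence was available. Z-scores were averaged across arrays of the same protein sequence at different concentrations or buffers and across linkers.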
# [2] = target: GlcNAc(b1-3)Gal(b1-4)GlcNAc(b1-3)GalNAc
# Summary of the method: as §1
# [3] = target: GlcNAc(b1-3)Gal(b1-4)GlcNAc(b1-3)[GlcNAc(b1-3)Gal(b1-4)GlcNAc(b1-3)]GalNAc
# Summary of the method: as §1
# [4] = target: GlcNAc(b1-3)Gal(b1-4)GlcNAc(b1-6)[Gal(b1-3)]GalNAc
# Summary of the method: as §1
# [5] = target: GlcNAc(b1-3)Gal(b1-4)GlcNAc(b1-6)[GlcNAc(b1-3)Gal(b1-3)]GalNAc
# Summary of the method: as §1
# [6] = target: GlcNAc(b1-3)Gal(b1-4)GlcNAc(b1-6)[GlcNAc(b1-3)]Gal(b1-4)GlcNAc
# Summary of the method: as §1
# GlcNAc(b1-3)GalNAc = target: GlcNAc(b1-3)GalNAc
# Summary of the method: as §1
# GlcNAc(b1-3)Man = target: GlcNAc(b1-3)Man
# Summary of the method: as §1
# [7] = target: GlcNAc(b1-3)[GlcNAc(b1-4)][GlcNAc(b1-6)]GlcNAc
# Summary of the method: as §1
# [8] = target: GlcNAc(b1-3)[GlcNAc(b1-6)]Gal(b1-4)GlcNAc
# Summary of the method: as §1
# [9] = target: GlcNAc(b1-3)[GlcNAc(b1-6)]GalNAc
# Summary of the method: as §1
# [10] = target: GlcNAc(b1-4)Gal(b1-4)GlcNAc
# Summary of the method: as §1
# GlcNAc(b1-4)GlcNAc = target: GlcNAc(b1-4)GlcNAc
# Summary of the method: as §1
# [11] = target: GlcNAc(b1-4)GlcNAc(b1-4)GlcNAc
# Summary of the method: as §1
# [12] = target: GlcNAc(b1-4)GlcNAc(b1-4)GlcNAc(b1-4)GlcNAc(b1-4)GlcNAc
# Summary of the method: as §1
# [13] = target: GlcNAc(b1-4)GlcNAc(b1-4)GlcNAc(b1-4)GlcNAc(b1-4)GlcNAc(b1-4)GlcNAc
# Summary of the method: as §1
# [14] = target: GlcNAc(b1-4)[GlcNAc(b1-6)]GalNAc
# Summary of the method: as §1
# [15] = target: GlcNAc(b1-6)Gal(b1-4)GlcNAc
# Summary of the method: as §1
# GlcNAc(b1-6)GalNAc = target: GlcNAc(b1-6)GalNAc
# Summary of the method: as §1
# [16] = target: GlcNAc6S(b1-3)Gal(b1-4)GlcNAc
# Summary of the method: as §1
# Kdn(a2-3)Gal(b1-3)GalNAc = target: Kdn(a2-3)Gal(b1-3)GalNAc
# Summary of the method: as §1
# Kdn(a2-3)Gal(b1-3)GlcNAc = target: Kdn(a2-3)Gal(b1-3)GlcNAc
# Summary of the method: as §1
# Kdn(a2-3)Gal(b1-4)Glc = target: Kdn(a2-3)Gal(b1-4)Glc
# Summary of the method: as §1
# Kdn(a2-3)Gal(b1-4)GlcNAc = target: Kdn(a2-3)Gal(b1-4)GlcNAc
# Summary of the method: as §1
# [17] = target: Kdn(a2-3)Gal(b1-4)[Fuc(a1-3)]GlcNAc
# Summary of the method: as §1
# Kdn(a2-6)Gal(b1-4)GlcNAc = target: Kdn(a2-6)Gal(b1-4)GlcNAc
# Summary of the method: as §1
# [18] = target: Man(a1-2)Man(a1-2)Man(a1-3)Man
# Summary of the method: as §1
# [19] = target: Man(a1-2)Man(a1-2)Man(a1-6)[Man(a1-3)]Man
# Summary of the method: as §1
# Man(a1-2)Man(a1-3)Man = target: Man(a1-2)Man(a1-3)Man
# Summary of the method: as §1
# [20] = target: Man(a1-2)Man(a1-3)[Man(a1-2)Man(a1-6)]Man
# Summary of the method: as §1
# [21] = target: Man(a1-2)Man(a1-3)[Man(a1-2)Man(a1-6)]Man(a1-6)[Man(a1-2)Man(a1-2)Man(a1-3)]Man
# Summary of the method: as §1
# [22] = target: Man(a1-2)Man(a1-3)[Man(a1-2)Man(a1-6)]Man(a1-6)[Man(a1-2)Man(a1-2)Man(a1-3)]Man(b1-4)GlcNAc(b1-4)GlcNAc
# Summary of the method: as §1
# [23] = target: Man(a1-2)Man(a1-3)[Man(a1-6)]Man(a1-6)[Man(a1-2)Man(a1-3)]Man(b1-4)GlcNAc(b1-4)GlcNAc
# Summary of the method: as §1
# [24] = target: Man(a1-2)Man(a1-6)[Man(a1-3)]Man(a1-6)[Man(a1-2)Man(a1-2)Man(a1-3)]Man
# Summary of the method: as §1
# [25] = target: Man(a1-2)Man(a1-6)[Man(a1-3)]Man(a1-6)[Man(a1-2)Man(a1-2)Man(a1-3)]Man(b1-4)GlcNAc(b1-4)GlcNAc
# Summary of the method: as §1
# Man(a1-3)[Man(a1-6)]Man = target: Man(a1-3)[Man(a1-6)]Man
# Summary of the method: as §1
# [26] = target: Man(a1-3)[Man(a1-6)]Man(a1-6)[Man(a1-2)Man(a1-3)]Man(b1-4)GlcNAc(b1-4)GlcNAc
# Summary of the method: as §1
binder,measurement,setting,value
B1,glycan array binding signal (z-score),[1],-0.483
same,glycan array binding signal (z-score),[2],-0.145
same,glycan array binding signal (z-score),[3],-0.345
same,glycan array binding signal (z-score),[4],-0.927
same,glycan array binding signal (z-score),[5],-0.607
same,glycan array binding signal (z-score),[6],-0.329
same,glycan array binding signal (z-score),GlcNAc(b1-3)GalNAc,0.953
same,glycan array binding signal (z-score),GlcNAc(b1-3)Man,-0.421
same,glycan array binding signal (z-score),[7],-0.123
same,glycan array binding signal (z-score),[8],-2.19
same,glycan array binding signal (z-score),[9],-0.128
same,glycan array binding signal (z-score),[10],-2.33
same,glycan array binding signal (z-score),GlcNAc(b1-4)GlcNAc,-0.273
same,glycan array binding signal (z-score),[11],-0.171
same,glycan array binding signal (z-score),[12],-0.66
same,glycan array binding signal (z-score),[13],-1.83
same,glycan array binding signal (z-score),[14],-0.241
same,glycan array binding signal (z-score),[15],-0.357
same,glycan array binding signal (z-score),GlcNAc(b1-6)GalNAc,-0.228
same,glycan array binding signal (z-score),[16],-0.495
same,glycan array binding signal (z-score),Kdn(a2-3)Gal(b1-3)GalNAc,-2.43
same,glycan array binding signal (z-score),Kdn(a2-3)Gal(b1-3)GlcNAc,0.302
same,glycan array binding signal (z-score),Kdn(a2-3)Gal(b1-4)Glc,-0.385
same,glycan array binding signal (z-score),Kdn(a2-3)Gal(b1-4)GlcNAc,-0.027
same,glycan array binding signal (z-score),[17],-0.059
same,glycan array binding signal (z-score),Kdn(a2-6)Gal(b1-4)GlcNAc,-0.168
same,glycan array binding signal (z-score),[18],1.22
same,glycan array binding signal (z-score),[19],-0.291
same,glycan array binding signal (z-score),Man(a1-2)Man(a1-3)Man,0.106
same,glycan array binding signal (z-score),[20],2.13
same,glycan array binding signal (z-score),[21],-0.138
same,glycan array binding signal (z-score),[22],-0.558
same,glycan array binding signal (z-score),[23],0.461
same,glycan array binding signal (z-score),[24],-0.105
same,glycan array binding signal (z-score),[25],-0.789
same,glycan array binding signal (z-score),Man(a1-3)[Man(a1-6)]Man,-0.193
same,glycan array binding signal (z-score),[26],-0.909

# Quoted at random: three entries already listed.
binder,measurement,setting,value
B1,glycan array binding signal (z-score),Kdn(a2-3)Gal(b1-4)Glc,-0.385
same,glycan array binding signal (z-score),[11],-0.171
same,glycan array binding signal (z-score),[16],-0.495

# Reference: the supplement of paper PMC8728848
